According to publication PMC6925163:
These are yes or no findings as the source states them, for the method shown. In cells and extracts the contact can be indirect. Some entries that bind do so weakly or less than the wild type.

Protein sequences, listed by entry. Tags and fused reporters are not part of them. Lines headed by an entry give the natural chain unless they say otherwise; changes in a name come on top.
UniProt P0A1K9: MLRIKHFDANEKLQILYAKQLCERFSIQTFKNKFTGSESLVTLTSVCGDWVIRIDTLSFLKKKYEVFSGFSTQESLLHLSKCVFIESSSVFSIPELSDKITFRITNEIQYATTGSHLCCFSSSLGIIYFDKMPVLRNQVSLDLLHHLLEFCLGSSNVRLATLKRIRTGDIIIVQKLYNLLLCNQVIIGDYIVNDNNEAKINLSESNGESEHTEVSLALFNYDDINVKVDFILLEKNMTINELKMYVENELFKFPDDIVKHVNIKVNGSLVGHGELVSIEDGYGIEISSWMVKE
UniProt Q04640: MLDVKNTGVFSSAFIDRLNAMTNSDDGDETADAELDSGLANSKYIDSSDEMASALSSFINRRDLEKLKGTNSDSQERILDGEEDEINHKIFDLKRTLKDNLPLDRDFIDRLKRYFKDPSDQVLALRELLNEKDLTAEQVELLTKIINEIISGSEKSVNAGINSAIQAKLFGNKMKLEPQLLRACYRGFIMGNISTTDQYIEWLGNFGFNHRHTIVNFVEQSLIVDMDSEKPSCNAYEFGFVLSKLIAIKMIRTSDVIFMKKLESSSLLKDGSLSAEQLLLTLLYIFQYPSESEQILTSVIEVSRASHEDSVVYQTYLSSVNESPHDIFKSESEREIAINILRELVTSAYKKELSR

Assays:
[1] = biological target: GST‐Spa33^C (Shigella flexneri) (UniProt P0A1K9); test: pull-down; proteins expressed separately, cell suspensions mixed before sonication; premix of clarified lysates on glutathione‐sepharose beads, washed, eluted; anti‐His Western blot and Coomassie
[2] = biological target: GST‐MxiC (Shigella flexneri) (UniProt Q04640); test: pull-down; GST fusion bound to GST‐Bind resin from cleared lysate and washed five times with PBS; E. coli lysate of the His-tagged protein applied overnight at 4°C; eluted with 50 mmol/L reduced glutathione (40 mmol/L Tris pH 8.0, 500 mmol/L NaCl); anti‐His Western blot and Coomassie; only the target purified
[3] = biological target: GST‐Spa33 (Shigella flexneri) (UniProt P0A1K9); test: pull-down; GST‐Spa33 produced in E. coli (Top10), cell lysate incubated with glutathione‐sepharose beads; eluted fractions on SDS‐PAGE, Coomassie

Row | Substance | binding [1] | binding [2] | binding [3]
1 | Spa33 full-length with hexa-histidine at both ends (His‐Spa33‐His, Spa33^FL) (from UniProt P0A1K9 1-293) | binds | binds | 
2 | Spa33^CC produced from pBAD‐Spa33^C (from UniProt P0A1K9 237-293) (domain or fragment) |  | binds | 
3 | Spa33^CC produced from pGEX4T1‐Spa33 (from UniProt P0A1K9 237-293) (domain or fragment) |  |  | binds
4 | Spa33^C‐His produced from pBAD‐Spa33^C (from UniProt P0A1K9 192-293) (domain or fragment) |  | binds | 
